Experimental data reported in PubChem BioAssay AID504834 (National Center for Advancing Translational Sciences (NCATS), 2011).
About 22,000 (6.9%) of roughly 320,000 compounds were called active. This list was built around the results that the source calls inconclusive (neither active nor inactive); the mix of calls is not that of the screen. Calls follow the shape of the dose curve; as a rule, active = well fitted inhibition curve with a large enough effect; inconclusive = small, poorly fitted or top-dose-only effect, or another doubt; inactive = no such curve, though single readings can be large or run the other way. Where the call is inconclusive, the potency comes from a doubtful curve fit.

assay: Primary qHTS for delayed death inhibitors of the malarial parasite plastid, 96 hour incubation; details: P. falciparum luciferase reporter growth; series mostly up to 28.7 µM; activity change, negative = inhibition: at the top concentration
Procedure, shortened: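 Luminescence readout: decreased luciferase signal marks inhibited growth of reporter-expressing P. falciparum in infected red cells (2% hematocrit, 0.05% parasitemia final), exposed to compound two generations (96 h, 37 C, 5% CO2).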
% is scaled to controls: 0 for no effect and ±100 for the full control effect; potency is read from the fitted curve at half-maximal effect.

SMILES | Potency | activity change, negative = inhibition
COc1ccccc1CSc1ncc(-c2ccc([N+](=O)[O-])cc2)[nH]1 | inconclusive: 8.28 µM [inhibitor, partial curve, poor fit] | –
CC1CCc2c(sc(NC(=O)CN3CCN(C(=O)c4ccco4)CC3)c2C#N)C1 (stereo not given) | inconclusive: 10.4 µM [inhibitor, single point] | –
CCCCNC(=S)N(C)/N=C/c1ccc(OCC(=O)Nc2ccc(OC)cc2)c(OC)c1 | inconclusive: 13.1 µM [inhibitor, single point] | –
CCCC1C(=O)Nc2ccccc2N1C(=O)c1cccc(C)c1 (stereo not given) | – | inactive: -31.5%
COC(=O)[C@H]1[C@H]2C[C@@H]3c4[nH]c5cc(OC)ccc5c4CCN3C[C@H]2C[C@@H](OC(=O)c2ccc(N)cc2)[C@@H]1OC | active: 13.1 µM | –
O=C(NC(=S)Nc1ccc(S(=O)(=O)Nc2nccs2)cc1)c1cccnc1 | – | inactive: 69.3%
CCCCCc1ccc(-c2ccc(OC)cc2)nc1 | active: 10.4 µM | –
CS(=O)(=O)c1ccc2nc(NC(=O)CN3CCN(Cc4ccccc4)CC3)sc2c1 | inconclusive: 8.28 µM [inhibitor, single point] | –
CCn1c(Cn2nnc(-c3ccccc3)n2)nnc1SCC(=O)Nc1cccc(C)c1C | – | inactive: -1.02%
CC(C)(C)C1CCc2onc(C(=O)Nc3ccc(F)cc3F)c2C1 (stereo not given) | – | inactive: -16.5%
Cc1ccc(CC(=O)Nc2ccc(C(=O)N3CCCCC3)cc2)cc1 | – | inactive: 1.37%
COc1cccc(NC(=O)Nc2ccc(CC(=O)O)cc2)c1 | active: 2.33 µM | –
CCOC(=O)c1cc(-c2ccccc2)n(CC(=O)Nc2cccc(OC)c2)c1C | inconclusive: 18.5 µM [inhibitor, single point] | –
CCC1CCCCN1CCCNC(=O)c1cn(C)c2ccc(S(=O)(=O)N(C)C3CCCCC3)cc2c1=O (stereo not given) | inconclusive: 18.5 µM [inhibitor, single point] | –
Oc1ccc(Br)cc1-c1cc(-c2ccccc2)n[nH]1 | active: 3.29 µM | –
COc1cccc(CNC(=O)Cc2ccc(OC)c(S(=O)(=O)N3CCOCC3)c2)c1 | inconclusive: 10.4 µM [inhibitor, single point] | –
COc1ccc(-c2cc(C(=O)Nc3ccc4c(c3)OCO4)no2)cc1 | – | inactive: -1.07%
COC(=O)c1ccc(CS(=O)(=O)c2ccc(C)cc2)cc1 | – | inactive: -1.98%
Cc1ccnc(N2C(=O)c3ccccc3C2Nc2ccccc2Cl)c1 (stereo not given) | inconclusive: 10.4 µM [inhibitor, single point] | –
COc1ccc(N2CCN(c3ccc(C(=O)O)cc3[N+](=O)[O-])CC2)cc1 | – | inactive: -1.17%
COc1ccc(C(CNC(=O)C(C)Oc2ccc(Br)cc2)N2CCCCC2)cc1 (stereo not given) | inconclusive: 18.5 µM [inhibitor, single point] | –
COc1ccc(CN2CCN(C(C)C(=O)N3CCc4ccccc43)CC2)cc1OC (stereo not given) | inconclusive: 0.928 µM [inhibitor, full curve, poor fit] | –
Cc1cc(/C=N/NC(=O)c2ccncc2)c(C)n1-c1ccccc1 | inconclusive: 9.28 µM [inhibitor, partial curve] | –
CCOC(=O)c1cnc2c(Cl)c(Cl)ccc2c1N1CCN(C)CC1 | – | inactive: 83%

SMILES | Potency | activity change, negative = inhibition
O=C(Nc1ccc(Oc2ccc(NC(=O)Nc3ccccc3Cl)cc2)cc1)Nc1ccccc1Cl | active: 1.47 µM | –
COc1ccc(OCc2cc(C(=O)N3CCSCC3)no2)c(Cl)c1 | inconclusive: 18.5 µM [inhibitor, single point] | –
CC(=O)Nc1ccc(NC(=O)c2cc(-c3ccc(C)cc3O)n[nH]2)cc1 | inconclusive: 0.522 µM [inhibitor, full curve, poor fit] | –
CN=C1c2cc3c(Br)c(OC)ccc3n2CCN1C | inconclusive: 10.4 µM [inhibitor, partial curve, poor fit] | –
Cc1ccc(N(CC(=O)N/N=C/c2cccs2)S(C)(=O)=O)cc1 | inconclusive: 9.28 µM [inhibitor, partial curve, poor fit] | –
NC(=O)CCN(C1CCCCC1)S(=O)(=O)c1cccc2nsnc12 | inconclusive: 9.28 µM [inhibitor, partial curve, poor fit] | –
Cc1ccc(NC(=O)CCN2C(=O)OC(C)(C)C2(C)O)cc1 (stereo not given) | inconclusive: 18.5 µM [inhibitor, single point] | –
Cc1ccc2c(CN3CCN(S(=O)(=O)c4ccc(Cl)cc4)CC3)cc(=O)oc2c1C | inconclusive: 3.7 µM [inhibitor, full curve] | –
CCCN(CCC)S(=O)(=O)c1nc2nc(C)cc(C)n2n1 | – | inactive: 16.2%
CCOc1ccc(C(C)NC(=O)Nc2ccccc2C(=O)OC)cc1 (stereo not given) | inconclusive: 1.85 µM [inhibitor, partial curve, poor fit] | –
Cc1ccc(NC(=O)Cc2csc(-c3ccccc3)n2)cc1F | inconclusive: 18.5 µM [inhibitor, single point] | –
Cc1nc(Nc2nc(CSc3ccc(Cl)cc3)cc(=O)[nH]2)nc2ccccc12 | inconclusive: 4.15 µM [inhibitor, partial curve, poor fit] | –
Cc1cc(C)c2cccc(NC(=S)NC(=O)c3ccccc3)c2n1 | active: 1.85 µM | –
COc1ccc(-c2nnc(SCc3nnc(-c4cccs4)o3)n2CC2CCCO2)cc1 (stereo not given) | inconclusive: 18.5 µM [inhibitor, single point] | –
Cc1cc(NC(=O)CN2CCCCC2)n(-c2ccccc2)n1 | – | inactive: 11.7%
CCN(CC)C(=O)CSc1n[nH]c(=O)n1CCc1ccccc1 | – | inactive: 0.422%
CCOC(=O)Cc1csc(NC(=O)CSc2nc(C)cc(=O)[nH]2)n1 | – | inactive: 4.63%
COc1ccc(N2CCOCC2)c(NC(=O)c2ccc(Br)o2)c1 | – | inactive: 9.59%
COc1cc(/C=C/C(=O)OCC(=O)NCCN2C(=O)CSC2=O)ccc1OCC#N | active: 10.4 µM | –
C/C(=N\Nc1nc2ccccc2[nH]1)c1ccc2c(c1)OCCO2 | inconclusive: 3.7 µM [inhibitor, single point] | –
S=C(Nc1ccc(Br)cc1Cl)N1CCCC1 | active: 2.08 µM | –
Cc1ccc(C)c(S(=O)(=O)NNC(=O)Nc2ccccc2Cl)c1 | inconclusive: 18.5 µM [inhibitor, partial curve, poor fit] | –
OCC1(CCCc2ccccc2)CCN(Cc2cc(F)ccc2F)CC1 | inconclusive: 10.4 µM [inhibitor, single point] | –
COc1ccc(CN2CCN(CC(O)Cn3c4ccccc4c4ccccc43)CC2)cc1 (stereo not given) | inconclusive: 2.94 µM [inhibitor, single point] | –

Entries of single compounds, looked up by structure:
`COc1ccc(-c2nnc(SCc3nnc(-c4cccs4)o3)n2CC2CCCO2)cc1` (stereo not given) is listed as Potency: inconclusive: 18.5 µM [inhibitor, single point]
`COc1ccc(N2CCOCC2)c(NC(=O)c2ccc(Br)o2)c1` is listed as activity change, negative = inhibition: inactive: 9.59%
`COc1cccc(NC(=O)Nc2ccc(CC(=O)O)cc2)c1` is listed as Potency: active: 2.33 µM

Later entries:

SMILES | Potency | activity change, negative = inhibition
CCN(CC(=O)NCC(=O)Nc1cccc(C)c1C)Cc1ccccc1 | – | inactive: -12.1%
C[C@@H](CN1CCC(Cc2ccccc2)CC1)[C@@H](O)c1ccc(O)cc1 | – | inactive: -14.1%
COc1ccccc1NC(=O)NC1CCCc2ccccc21 (stereo not given) | inconclusive: 18.5 µM [inhibitor, single point] | –
Cc1nc(C(=O)N2CCCC(C(=O)c3cccc(OC(C)C)c3)C2)cs1 (stereo not given) | inconclusive: 10.4 µM [inhibitor, single point] | –
CCCNC(=O)COc1ccccc1[N+](=O)[O-] | – | inactive: 37.4%
CCOC(=O)C1CCN(C(=O)c2ccc3c(c2)NC(=O)/C(=C\c2ccc(C)cc2)S3)CC1 | inconclusive: 2.08 µM [inhibitor, partial curve, poor fit] | –
Cc1nc(N2CCOCC2)c2c3c(sc2n1)CCC3 | inconclusive: 14.7 µM [inhibitor, partial curve, poor fit] | –
CCOC(=O)c1cccc(NC(=O)c2ccc(NC(=O)C3CCCO3)cc2)c1 (stereo not given) | active: 7.38 µM | –
CCNC(=O)COC(=O)c1sccc1C | – | inactive: 31.2%
Cc1c(OCC(=O)NCc2ccncc2)ccc2c3c(c(=O)oc12)CCCC3 | inconclusive: 14.7 µM [inhibitor, partial curve, poor fit] | –
CN(c1ccc(Br)cc1)S(=O)(=O)c1ccc2[nH]cc(C(=O)NCCN3CCOCC3)c(=O)c2c1 | inconclusive: 14.7 µM [inhibitor, single point] | –
O=C(NCc1ccccc1)c1ccc(=O)oc1 | inconclusive: 0.0262 µM [inhibitor, full curve, poor fit] | –
O=c1oc2ccccc2c2c1C(O)CO2 (stereo not given) | inconclusive: 0.0928 µM [inhibitor, full curve, poor fit] | –
CCOc1ccc(C(NC(=O)CC)c2c(O)ccc3ccccc23)cc1 (stereo not given) | inconclusive: 18.5 µM [inhibitor, single point] | –
O=C(CC1C(=O)NCCN1Cc1cccc(Oc2ccccc2)c1)NCCc1cnccn1 (stereo not given) | inconclusive: 18.5 µM [inhibitor, single point] | –
O=C(c1ccc2c(c1)OCO2)[C@@H]1[C@@H]2C(=O)N(C3CCCCC3)C(=O)[C@@H]2C2c3ccccc3C=CN21 (stereo not given in full) | active: 4.65 µM | –
Fc1ccccc1N1CCN(c2nc3ccccc3n3nnnc23)CC1 | – | inactive: 67.4%
COc1cccc(N(C(=O)Cn2nnc(-c3cccs3)n2)C(C(=O)NC2CCCCC2)c2ccncc2)c1 (stereo not given) | inconclusive: 0.0657 µM [inhibitor, full curve, poor fit] | –
CCOc1ccc(NC(=O)c2cc3cc4ccc(C)cc4nc3o2)cc1 | inconclusive: 18.5 µM [inhibitor, single point] | –
Cc1ccc(-c2nnc(NC(=O)c3ccco3)s2)cc1 | inconclusive: 11.7 µM [inhibitor, single point] | –
CC(=O)Nc1ccc(S(=O)(=O)N2CCN(C(=O)N3CCOCC3)CC2)cc1 | inconclusive: 18.5 µM [inhibitor, single point] | –
C/C(CC(=O)Nc1cccnc1)=N\NC(=O)C(C)Oc1ccc(Cl)cc1Cl (stereo not given) | inconclusive: 18.5 µM [inhibitor, partial curve, poor fit] | –
